PubChem BioAssay AID1259308, NCATS, 2017

Aim: 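Genes whose loss raises luciferase production in HEK293 cells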 (primary screen)
Cell system: human HEK293 embryonic kidney cells stably expressing firefly luciferase (HEK-CMV-Luc2-Hygro)
Knock-down reagent: single siRNA against human genes, 0.8 pmol siRNA per well
Timing: 72 h
Measured: 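Luciferase light (ONE-Glo) measured on one replicate plate set and viability (CellTiter-Glo) on the other, scaled to a negative control siRNA, with robust z-scores and luciferase per cell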
Direction: total luciferase, z-score: higher = more reporter protein produced
Active means: 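Active when the median/MAD z-score for overall luciferase is greater than 3; a gene was taken forward for validation with new siRNAs if at least two of its three siRNAs passed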
Meaning of the calls: active = raised luciferase; inactive = no rise
The whole screen tested about 59,000 reagents; this is a random part of them. About 1,510 of all reagents (2.6%) were called active. 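Calls use total luciferase alone and ignore viability, so some active siRNAs may act by altering cell number.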 Reagents against one gene are numbered here. Not all columns of the deposit are shown.

total luciferase, z-score, by gene knocked down and reagent
TRIM42 (tripartite motif containing 42): #1 -0.415 inactive; #2 -0.681 inactive; #3 0.408 inactive
ANHX (anomalous homeobox): #1 0.478 inactive; #2 0.544 inactive; #3 -0.354 inactive
MZF1 (myeloid zinc finger 1): #1 6.07 active; #2 3.3 active; #3 -0.428 inactive
YRDC (yrdC N6-threonylcarbamoyltransferase domain containing): #1 -0.302 inactive; #2 0.971 inactive; #3 0.282 inactive
LINC00898 (long independently transcribed non-coding RNA 898): #1 0.876 inactive; #2 -0.21 inactive; #3 -0.426 inactive
DHRS12 (dehydrogenase/reductase 12): #1 -0.438 inactive; #2 3.46 active; #3 -0.159 inactive
TDRD9 (tudor domain containing 9): #1 0.0405 inactive; #2 -0.354 inactive; #3 -0.174 inactive
KCNG4: #1 -0.143 inactive; #2 -0.188 inactive; #3 0.669 inactive
